Paper PMC11180018
No constants are given. Whether binding was seen depends on the method and setting. Binding seen in cells or lysates may run through a third protein. Some entries that bind do so weakly or less than the wild type. Tags and fused reporters may be left off the sequences shown.

Amino acid sequences for entries named in this document (tags omitted).
UniProt P54609: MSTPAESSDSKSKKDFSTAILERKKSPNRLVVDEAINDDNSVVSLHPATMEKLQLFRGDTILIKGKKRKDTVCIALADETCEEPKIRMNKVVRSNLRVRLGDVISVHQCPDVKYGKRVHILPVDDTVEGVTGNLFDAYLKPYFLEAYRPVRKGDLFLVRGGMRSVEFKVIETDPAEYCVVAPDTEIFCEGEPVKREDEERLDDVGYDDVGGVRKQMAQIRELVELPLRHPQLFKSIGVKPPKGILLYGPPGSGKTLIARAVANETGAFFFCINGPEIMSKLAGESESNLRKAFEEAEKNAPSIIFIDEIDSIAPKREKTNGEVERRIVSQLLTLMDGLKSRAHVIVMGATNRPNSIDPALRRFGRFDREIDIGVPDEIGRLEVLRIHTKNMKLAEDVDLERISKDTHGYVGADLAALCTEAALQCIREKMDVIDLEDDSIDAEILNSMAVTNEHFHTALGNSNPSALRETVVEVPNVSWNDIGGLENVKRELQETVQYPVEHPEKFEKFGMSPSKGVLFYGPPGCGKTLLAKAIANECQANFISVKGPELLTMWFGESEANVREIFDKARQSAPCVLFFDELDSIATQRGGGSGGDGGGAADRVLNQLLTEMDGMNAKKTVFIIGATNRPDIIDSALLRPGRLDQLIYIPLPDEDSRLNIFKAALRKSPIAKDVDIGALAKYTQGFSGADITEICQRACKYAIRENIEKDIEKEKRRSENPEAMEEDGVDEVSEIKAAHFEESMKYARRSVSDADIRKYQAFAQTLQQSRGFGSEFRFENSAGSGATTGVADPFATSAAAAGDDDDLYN
UniProt Q39255: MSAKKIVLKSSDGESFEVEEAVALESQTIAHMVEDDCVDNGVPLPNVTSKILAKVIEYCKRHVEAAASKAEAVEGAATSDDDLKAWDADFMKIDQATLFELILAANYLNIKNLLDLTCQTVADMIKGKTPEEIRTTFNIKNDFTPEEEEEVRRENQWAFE

Assays:
[1] = biological target: T1, EID1 (BiFC fusion) (UniProt Q8LEA8); test: split reporter; BiFC (nYFP/cYFP) in transiently transfected Arabidopsis leaf mesophyll protoplasts, overnight incubation in darkness
T1 sequence: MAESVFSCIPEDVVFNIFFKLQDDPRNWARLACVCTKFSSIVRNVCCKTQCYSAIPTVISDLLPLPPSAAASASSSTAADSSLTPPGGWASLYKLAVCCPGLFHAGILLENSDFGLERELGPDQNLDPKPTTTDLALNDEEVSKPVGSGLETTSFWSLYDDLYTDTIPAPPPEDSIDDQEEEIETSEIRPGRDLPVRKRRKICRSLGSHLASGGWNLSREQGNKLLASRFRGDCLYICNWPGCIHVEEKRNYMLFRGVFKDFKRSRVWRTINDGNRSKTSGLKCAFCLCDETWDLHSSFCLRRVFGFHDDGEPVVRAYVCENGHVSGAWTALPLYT

[2] = biological target: CDC48A-FLAG (Arabidopsis thaliana) (UniProt P54609); test: co-IP; lysates of Arabidopsis seedlings stably expressing WOX2-YFP-GR and CDC48A-FLAG after 4 h 10 μM DEX; immunoprecipitated by anti-GFP beads or anti-FLAG beads (µMACS kit); Western blots with anti-GFP and anti-FLAG
[3] = biological target: T2, WOX2 fused to nYFP (BiFC) (Arabidopsis thaliana) (UniProt Q6X7K1); test: split reporter; BiFC (nYFP/cYFP) in transiently transfected Arabidopsis leaf mesophyll protoplasts, overnight incubation in darkness
T2 sequence: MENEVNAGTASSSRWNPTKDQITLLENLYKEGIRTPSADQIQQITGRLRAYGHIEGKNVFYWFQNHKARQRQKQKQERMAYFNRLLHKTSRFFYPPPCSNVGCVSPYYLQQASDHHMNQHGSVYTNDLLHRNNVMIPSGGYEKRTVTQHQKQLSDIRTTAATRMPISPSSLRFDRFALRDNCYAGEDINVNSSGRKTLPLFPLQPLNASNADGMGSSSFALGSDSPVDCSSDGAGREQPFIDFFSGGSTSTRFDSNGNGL

ASK1 (BiFC fusion) (from UniProt Q39255 1-160)
binding [1]: binds

B1: WOX2-YFP-GR (protein, UniProt Q6X7K1 1-260)
chain: T2 sequence
binding [2]: binds

B2: EID1 (BiFC fusion) (protein, UniProt Q8LEA8 1-336)
chain: T1 sequence
binding [3]: no binding
